Values from PubChem BioAssay AID1259254 (NCATS, 2017).
In all, the deposit lists about 59,000 reagents; shown is a random part of them. Over the whole deposit, about 1,550 (2.6%) were called active. 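G2 share is only a proxy for re-replication; each gene was hit by three separate siRNAs, and active genes were retested.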 The raw values are shown without normalisation. Entries without a mark were called inactive. The numbers tell different reagents against one gene apart. Not stated in the record: the amount of reagent.

Aim: 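Finding genes that stop cells copying their DNA twice in one cycle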 (primary screen)
Cells: human HCT116 colorectal cancer cells
Reagents: single siRNA against human genes
Time to read-out: 3 days
Detection: 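Nuclei stained with Hoechst and imaged; cell-cycle phase assigned by DNA content; G2 share scaled per plate, non-targeting siRNA 0%, GMNN siRNA 100%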
Reading the numbers: G2 robust z-score and G2 cells, % of GMNN control: higher = more G2 cells, more excess DNA replication; raw share of cells in G2: higher = larger share of cells with G2 DNA content
Active means: 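An siRNA counts as active if its G2 robust z-score lies at least 5 MADs above the screen median; here such calls match roughly 38% of GMNN control or more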

gene	reagent	G2 robust z-score	G2 cells, % of GMNN control	raw share of cells in G2 (%)
PFKM (phosphofructokinase, muscle)	1	-1.19	-5.41	3.82
PFKM (phosphofructokinase, muscle)	2	-0.077	2.43	6.23
PFKM (phosphofructokinase, muscle)	3	-0.868	-3.14	2.92
CMTM3 (CKLF like MARVEL transmembrane domain containing 3)	1	-0.253	1.19	4.57
CMTM3 (CKLF like MARVEL transmembrane domain containing 3)	2	-0.631	-1.47	2.89
CMTM3 (CKLF like MARVEL transmembrane domain containing 3)	3	-0.235	1.31	2.2
UBQLN2 (ubiquilin 2)	1	-0.589	-1.18	3.41
UBQLN2 (ubiquilin 2)	2	0.885	9.2	8.03
UBQLN2 (ubiquilin 2)	3	0.958	9.71	6.31
OR52L1 (olfactory receptor family 52 subfamily L member 1)	1	0.117	3.79	5.29
OR52L1 (olfactory receptor family 52 subfamily L member 1)	2	1.74	15.2	9.91
OR52L1 (olfactory receptor family 52 subfamily L member 1)	3	1.9	16.3	10.8
RYK (receptor like tyrosine kinase)	1	1.35	12.5	9.73
RYK (receptor like tyrosine kinase)	2	-1.43	-7.09	3.02
RYK (receptor like tyrosine kinase)	3	-0.901	-3.37	2.84
ZNF619 (zinc finger protein 619)	1	5.14 (active)	39.1	16.6
ZNF619 (zinc finger protein 619)	2	-0.294	0.896	3.48
ZNF619 (zinc finger protein 619)	3	2.76	22.4	11.4
TYMSOS (TYMS opposite strand RNA)	1	5.73 (active)	43.3	20.3
TYMSOS (TYMS opposite strand RNA)	2	-0.473	-0.358	3.28
TYMSOS (TYMS opposite strand RNA)	3	-0.292	0.914	3.43

Hits, among the entries above:
gene	reagent	G2 robust z-score	G2 cells, % of GMNN control	raw share of cells in G2 (%)
ZNF619 (zinc finger protein 619)	1	5.14 (active)	39.1	16.6
TYMSOS (TYMS opposite strand RNA)	1	5.73 (active)	43.3	20.3

Continued.
gene	reagent	G2 robust z-score	G2 cells, % of GMNN control	raw share of cells in G2 (%)
RHOA (ras homolog family member A)	1	2.45	20.2	11.6
RHOA (ras homolog family member A)	2	0.735	8.14	7.02
RHOA (ras homolog family member A)	3	-0.126	2.08	5.81
PSME3IP1 (proteasome activator subunit 3 interacting protein 1)	1	2.41	19.9	12.7
PSME3IP1 (proteasome activator subunit 3 interacting protein 1)	2	-0.337	0.593	4.56
PSME3IP1 (proteasome activator subunit 3 interacting protein 1)	3	-0.871	-3.16	1.51
FENDRR (FOXF1 adjacent non-coding developmental regulatory RNA)	1	0.382	5.65	4.99
FENDRR (FOXF1 adjacent non-coding developmental regulatory RNA)	2	-0.355	0.468	4.98
FENDRR (FOXF1 adjacent non-coding developmental regulatory RNA)	3	0.432	6.01	5.83
FENDRR (FOXF1 adjacent non-coding developmental regulatory RNA)	4	0.67	7.68	6.02
FENDRR (FOXF1 adjacent non-coding developmental regulatory RNA)	5	2.9	23.4	12.3
FENDRR (FOXF1 adjacent non-coding developmental regulatory RNA)	6	-0.438	-0.112	3.47
LNPEP (leucyl and cystinyl aminopeptidase)	1	-1	-4.07	4.14
LNPEP (leucyl and cystinyl aminopeptidase)	2	0.706	7.94	7.72
LNPEP (leucyl and cystinyl aminopeptidase)	3	-0.197	1.58	4.5
NCCRP1 (NCCRP1, F-box associated domain containing)	1	0.748	8.23	6.81
NCCRP1 (NCCRP1, F-box associated domain containing)	2	0.192	4.32	5.15
NCCRP1 (NCCRP1, F-box associated domain containing)	3	1.63	14.4	10
KLHL21 (kelch like family member 21)	1	-1.09	-4.71	3.2
KLHL21 (kelch like family member 21)	2	0.668	7.66	7.14
KLHL21 (kelch like family member 21)	3	0.364	5.53	5.42
CTTNBP2NL (CTTNBP2 N-terminal like)	1	0.809	8.66	7.76
CTTNBP2NL (CTTNBP2 N-terminal like)	2	-0.542	-0.846	4.06
CTTNBP2NL (CTTNBP2 N-terminal like)	3	0.0726	3.48	4.13
ARAP3 (ArfGAP with RhoGAP domain, ankyrin repeat and PH domain 3)	1	-0.629	-1.46	5.04
ARAP3 (ArfGAP with RhoGAP domain, ankyrin repeat and PH domain 3)	2	-0.26	1.14	4.75
ARAP3 (ArfGAP with RhoGAP domain, ankyrin repeat and PH domain 3)	3	-0.34	0.572	4.43
